Experiment: peptide made by a vendor
Settings: whole synthesis, purity and molecular weight confirmed by MALDI-TOF MS, pone-0114614-g001

Substance | final HPLC purity
GGLRSLGRKILRAWKKYGPIIVPIIRIG [D-BMAP-28] | 96.67%
GGLRSLGRKILRAWKKYGPIIVPIIRIG [L-BMAP-28] | 95.61%
GGLRSLGRKILRAWKKYGPIIVPIIRIG [RI-BMAP-28] | 95.62%

Experiment: peptide made by a vendor (peptide synthesis; Rink amide resin)
Settings: whole synthesis, purity and molecular weight confirmed by MALDI-TOF MS, pone-0114614-g003

Substance | final HPLC purity
GGLRSLGRKILRAWKKYGPIIVPIIRI-NH2 [D-BMAP-28-NH2] | 95.35%
GGLRSLGRKILRAWKKYGPIIVPIIRI-NH2 [L-BMAP-28-NH2] | 95.64%
GGLRSLGRKILRAWKKYGPIIVPIIRI-NH2 [RI-BMAP-28-NH2] | 95.85%

— paper PMC4269415 (PLoS ONE, 2014)
